The record followed here is paper PMC3805608.

Protein sequences, listed by entry. Tags and fused reporters are not part of them. Residues count along the entry.
UniProt P18537, residues 19-581: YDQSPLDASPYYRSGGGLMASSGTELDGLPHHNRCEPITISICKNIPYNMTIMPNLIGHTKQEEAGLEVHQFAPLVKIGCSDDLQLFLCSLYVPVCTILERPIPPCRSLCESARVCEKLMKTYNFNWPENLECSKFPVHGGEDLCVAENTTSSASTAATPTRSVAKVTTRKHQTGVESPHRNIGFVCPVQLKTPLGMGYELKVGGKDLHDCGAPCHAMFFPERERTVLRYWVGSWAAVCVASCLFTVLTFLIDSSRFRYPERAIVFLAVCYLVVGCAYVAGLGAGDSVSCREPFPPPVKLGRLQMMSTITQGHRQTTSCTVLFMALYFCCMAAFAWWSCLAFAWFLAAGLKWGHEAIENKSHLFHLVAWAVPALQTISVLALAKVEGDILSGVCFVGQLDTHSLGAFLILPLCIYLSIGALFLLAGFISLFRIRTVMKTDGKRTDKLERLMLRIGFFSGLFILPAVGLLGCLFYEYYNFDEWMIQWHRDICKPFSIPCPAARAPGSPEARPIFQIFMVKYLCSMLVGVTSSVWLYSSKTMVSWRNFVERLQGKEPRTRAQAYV

This experiment has as its target T1, His6-Rab5 (UniProt Q9V3I2).
T1 sequence: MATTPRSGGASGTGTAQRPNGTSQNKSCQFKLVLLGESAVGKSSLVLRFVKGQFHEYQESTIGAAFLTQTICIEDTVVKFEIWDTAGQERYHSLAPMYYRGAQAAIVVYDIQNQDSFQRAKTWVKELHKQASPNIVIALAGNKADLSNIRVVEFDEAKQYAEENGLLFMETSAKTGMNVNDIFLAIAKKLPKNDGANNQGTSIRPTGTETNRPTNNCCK
In words: pull-down; MBP-Kermit, His6-CG5036 or His6-Rab5 linked on CNBr-activated Sepharose; MBP-Fz from bacterial membranes solubilized with 10 mM CHAPS (30 min, 4°C); 3 h at 4°C, Western blot; only the target purified. Background: In western blotting, separated proteins are transferred to a membrane and probed.

Results are given in words; binding and its absence hold for the method and conditions named. In cells and extracts the contact can be indirect. Some entries that bind do so weakly or less than the wild type. Tags and fused reporters may be left off the sequences shown.

With “MBP-Fz (from UniProt P18537 19-581) (receptor)”, the binding entry is reported as “binds”.
